Laboratory results reported in article doi:10.1101/2024.09.04.610270.
Residue numbers refer to the chain shown, from its start. Results are given in words; binding and its absence hold for the method and conditions named. Some entries that bind do so weakly or less than the wild type.

Sequences of proteins named here, by UniProt entry; tags and fusion partners are left off. A change or cut given only in a name is not applied to a line headed by its entry.
UniProt Q8VYA5, whole entry: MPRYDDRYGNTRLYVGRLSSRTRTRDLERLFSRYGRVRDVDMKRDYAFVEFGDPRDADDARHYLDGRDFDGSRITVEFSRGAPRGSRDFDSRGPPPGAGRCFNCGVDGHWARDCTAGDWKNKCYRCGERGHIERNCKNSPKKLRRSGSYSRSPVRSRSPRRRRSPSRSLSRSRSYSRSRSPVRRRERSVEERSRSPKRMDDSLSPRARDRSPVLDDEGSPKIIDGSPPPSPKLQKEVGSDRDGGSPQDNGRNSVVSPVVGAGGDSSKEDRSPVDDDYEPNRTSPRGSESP
UniProt Q9FYB7, whole entry: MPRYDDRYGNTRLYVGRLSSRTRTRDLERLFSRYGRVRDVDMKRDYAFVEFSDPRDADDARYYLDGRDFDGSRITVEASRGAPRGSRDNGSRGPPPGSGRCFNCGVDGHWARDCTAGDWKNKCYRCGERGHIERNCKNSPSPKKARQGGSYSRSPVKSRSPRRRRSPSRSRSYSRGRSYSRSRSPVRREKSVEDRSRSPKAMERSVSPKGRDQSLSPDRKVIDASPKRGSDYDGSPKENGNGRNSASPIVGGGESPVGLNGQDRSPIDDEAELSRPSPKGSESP

T1: RS2Z33mutRRM (Arabidopsis thaliana) (UniProt Q8VYA5)
T1 sequence: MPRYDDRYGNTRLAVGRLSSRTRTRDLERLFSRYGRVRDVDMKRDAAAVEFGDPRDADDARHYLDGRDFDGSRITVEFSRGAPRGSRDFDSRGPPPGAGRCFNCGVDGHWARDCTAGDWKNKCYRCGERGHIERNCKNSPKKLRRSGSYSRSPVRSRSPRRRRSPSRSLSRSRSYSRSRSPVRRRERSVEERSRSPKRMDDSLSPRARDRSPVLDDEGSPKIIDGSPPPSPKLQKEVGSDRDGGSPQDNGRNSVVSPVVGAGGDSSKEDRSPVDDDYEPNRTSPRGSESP

T2: RS2Z32mutRRM (Arabidopsis thaliana) (UniProt Q9FYB7)
T2 sequence: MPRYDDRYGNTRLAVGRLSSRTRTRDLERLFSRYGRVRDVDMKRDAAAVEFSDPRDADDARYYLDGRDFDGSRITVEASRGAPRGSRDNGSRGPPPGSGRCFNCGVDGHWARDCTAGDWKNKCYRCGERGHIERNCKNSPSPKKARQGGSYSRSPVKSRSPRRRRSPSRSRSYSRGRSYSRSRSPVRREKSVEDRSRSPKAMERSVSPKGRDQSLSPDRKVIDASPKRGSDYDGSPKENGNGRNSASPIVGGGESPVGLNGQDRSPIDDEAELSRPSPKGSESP

T3: arginine/serine-rich zinc knuckle-containing protein 33 (RS2Z33), native full-length, yeast two-hybrid bait (Arabidopsis thaliana) (UniProt Q8VYA5)
T3 sequence: T1 sequence with A14Y, A46Y, A48F

T4: arginine/serine-rich zinc knuckle-containing protein 32 (RS2Z32), native full-length, yeast two-hybrid bait (Arabidopsis thaliana) (UniProt Q9FYB7)
T4 sequence: T2 sequence with A14Y, A46Y, A48F

B1: Cyp59 (protein, UniProt Q6Q151 1-506)
chain: MSVLIVTSLGDIVIDLHSDKCPLTCKNFLKLCKIKYYNGCLFHTVQKDFTAQTGDPTGTGAGGDSIYKFLYGEQARFYKDEIHLDLKHSKTGTVAMASGGENLNASQFYFTLRDDLDYLDGKHTVFGQIAEGFDTLTRINEAYVDPKNRPYKNIRIKHTHILDDPFDDPPQLAEMMPDASPEGKPKEEVKDDVRLEDDWVPMDEELGAQELEEVIREKAAHSSAVVLESIGDIPEAEVKPPDNVLFVCKLNPVTEDEDLHTIFSRFGTVVSADVIRDFKTGDSLCYAFIEFENKESCEQAYFKMDNALIDDRRIHVDFSQSVSKLWSQFRQKDSQKGKGNGCFKCGSTDHIAKDCVGGPSSKFIVKDQNRQHGGGEGYEMVFEGDVHETPKHNSHERERSEKIQRRSPHGNGEGKRQHRDERDDGRRQHDREDARELERKHRERKERESREDEDRRRRRRREESRDKESRRERDEDDHRSHRDYKERRRERDDRHGREARHERRDR
B2: Y14 (protein, UniProt F4I9J7 1-202)
chain: MANIESEAVDFEPEEDDLMDEEGTAIDGADVSPRAGHPRLKSAIAGANGESAKKTKGRGFREEKDSDRQRRLSSRDFESLGSDGRPGPQRSVEGWIILVSGVHEETQEEDITNAFGDFGEIKNLNLNLDRRSGYVKGYALIEYEKKEEAQSAISAMNGAELLTQNVSVDWAFSSGPSGGESYRRKNSRYGRSQRSRSPRRRY
B3: MAGO (protein, UniProt O23676 1-150)
chain: MAAEEATEFYLRYYVGHKGKFGHEFLEFEFREDGKLRYANNSNYKNDTIIRKEVFLTPAVLKECKRIVSESEILKEDDNNWPEPDRVGKQELEIVLGNEHISFATSKIGSLVDCQSSNDPEGLRIFYYLVQDLKCLVFSLISLHFKIKPI
B4: PRP38 (protein, UniProt Q8LB54 1-355)
chain: MANRTDPLAKNIRGTNPQNLVEKIVRTKIYQHTFWKEQCFGLTAETLVDKAMELDHLGGTFGGSRKPTPFLCLILKMLQIQPEKEIVVEFIKNDDYKYVRILGAFYLRLTGTDVDVYRYLEPLYNDYRKVRQKLSDGKFSLTHVDEVIEELLTKDYSCDIAMPRLKKRWTLEQNGLLEPRKSVLEDDFEEEEEKEENEGIADGSEDEMDQRRKSPERERERDRDRRRDSHRHRDRDYDRDYDMDRDHDRDYERERGHGRDRDRERDRDHYRERDRDRERGRDRERDRRDRARRRSRSRSRDRKRHETDDVRDREEPKKKKEKKEKMKEDGTDHPNPEIAEMNRLRASLGMKPLRD
B5: GRP7 (protein, UniProt Q03250 1-176)
chain: MASGDVEYRCFVGGLAWATDDRALETAFAQYGDVIDSKIINDRETGRSRGFGFVTFKDEKAMKDAIEGMNGQDLDGRSITVNEAQSRGSGGGGGHRGGGGGGYRSGGGGGYSGGGGSYGGGGGRREGGGGYSGGGGGYSSRGGGGGSYGGGRREGGGGYGGGEGGGYGGSGGGGGW
B6: Cyp71 (protein, UniProt Q8W4D0 1-631)
chain: MEEESKNGGTTIPTEELAVVAVPPVVEEEEPMVGPGPAPRGKRKRPLQFEQAYLDSLPSANMYEKSYMHRDVVTHVAVSAAEFFISGSMDGHLKFWKKKGVGIEFAKHFRSHLGPIEGLAVSIDGLLCCTISNDHAVKIYDVVNYDMMAMIRLPYIPGAVEWVYKQGDVKAKLAVSDRDSLFVHIYDPRSGSNEPIASKEIHMNPIKVMKYNPVSDTMISGDTKGIIEYWSATTLQFPEDEVNFKLKSDTNLFEIIKCKTTISAIEVSPDGKQFSITAPDRRIRVFWFRTGKLRRVYDESLVVAQDLQRSDAPLYRLEAIDFGRRMAVEKELEKTESAPQPNAVFDESSNFLIYATFLGIKVINLHTNTVARILGKVESNERYLRVALYQGDQGGKKVRKIPAAAANVNESKEPLTDPTILCCAFKKHRIYMFSRREPEEPEDASQGRDVFNEKPAADELMSVSDIGNSATTSLPENVIMHTTLGDIHMKLYPEECPKTVENFTTHCRNGYYDNHLFHRVIRGFMIQTGDPLGDGTGGQSIWGREFEDEFHKSLRHDRPFTLSMANAGPNTNGSQFFITTVATPWLDNKHTVFGRVVKGMDVVQGIEKVKTDKNDRPYQDVKILNVTVPKS
B7: RZ-1C (protein, UniProt Q8RWN5 1-310)
chain: MAAKEGSRIFVGGLSPEVTDRDLERAFSRFGDILDCQIMLERDTGRSRGFGFITFADRRAMDESIREMHGRDFGDRVISVNRAEPKLGRDDGESHGSRGGRDSGYSIAGKGSFGGGGGGGGRVGEDECFKCGRVGHWARDCPSAGGGRGGPVGGFSSRASAYGGSDGRVDRYADRDRYVDRERYIDDRYDGAARYGARDRFDSREAYIPRDRYASDRYAAPADRFAGGDRYSRGSDRYPPGSYDKARSFERDIAPSAGSDRYGGGRAGGPIRGGGEEGRGFRSRAGAPYERPSRSGGGGAYPSSSTFDRY
B8: MOS12 (protein, UniProt Q8RWV3 1-416)
chain: MIYTAIDNFYLSDEQLKASPSRKDGIDETTEISLRIYGCDLIQEGGILLKLPQAVMATGQVLFQRFYCKKSLAKFDVKIVAASCVWLASKLEENPKKARQVIIVFHRMECRRENLPLEHLDMYAKKFSELKVELSRTERHILKEMGFVCHVEHPHKFISNYLATLETPPELRQEAWNLANDSLRTTLCVRFRSEVVACGVVYAAARRFQVPLPENPPWWKAFDADKSSIDEVCRVLAHLYSLPKAQYISVCKDGKPFTFSSRSGNSQGQSATKDLLPGAGEAVDTKCTAGSANNDLKDGMVTTPHEKATDSKKSGTESNSQPIVGDSSYERSKVGDRERESDREKERGRERDRGRSHRGRDSDRDSDRERDKLKDRSHHRSRDRLKDSGGHSDKSRHHSSRDRDYRDSSKDRRRHH
B9: RZ-1B (protein, UniProt O22703 1-292)
chain: MKDRENDGNLESRIFVGGLSWDVTERQLESTFDRYGKITECQIMVGRDTGRPRGFGFITFTDRRGADDAIKHMHGRELGNKVISVNKAEPKVGGEDVDQLKKGGGYSSRGKGTEDECFKCRRPGHWARDCPSTGDDRERFRVPLAMRSRIGDIDGHRDRYGDRDLEREREREREFDRYMDGRRDRDGGRYSYRDRFDSGDKYEPRDHYPFERYAPPGDRFVSDRYGMPEHHLENEYRGRERSYDRDRYARDTSDRYGDMGPIRDEGRPYRSRPGPYDRPSRPGGRPSSYERW
B10: GRP8 (protein, UniProt Q03251 1-169)
chain: MSEVEYRCFVGGLAWATNDEDLQRTFSQFGDVIDSKIINDRESGRSRGFGFVTFKDEKAMRDAIEEMNGKELDGRVITVNEAQSRGSGGGGGGRGGSGGGYRSGGGGGYSGGGGGGYSGGGGGGYERRSGGYGSGGGGGGRGYGGGGRREGGGYGGGDGGSYGGGGGGW
B11: ALY4 (protein, UniProt Q6NQ72 1-288)
chain: MSGALNMTLDEIVKRGKTARSGGRGISRGRGRGRGGGGRGAGPARRGPLAVNARPSSFTINKPVRRVRSLPWQSGLFEDGLRAAGASGVEVGTRLHVTNLDQGVTNEDIRELFSEIGEVERYAIHYDKNGRPSGTAEVVYPRRSDAFQALKKYNNVLLDGRPMRLEILGGNNSSEAPLSGRVNVNVTGLNGRLKRTVVIQQGGGGRGRVRGGRGGRGPAPTVSRRLPIHNQQGGGMRGGRGGFRARGRGNGGRGRGGGRGNGKKPVEKSAADLDKDLESYHADAMNTS

target: T1, RS2Z33mutRRM (Arabidopsis thaliana); assay: two-hybrid

Row | binding | Binder
1 | no binding | B1

target: T2, RS2Z32mutRRM (Arabidopsis thaliana); assay: two-hybrid

Row | binding | Binder
2 | no binding | B1

target: T3, arginine/serine-rich zinc knuckle-containing protein 33 (RS2Z33), native full-length, yeast two-hybrid bait (Arabidopsis thaliana); assay: two-hybrid

Row | binding | Binder
3 | binds | B1
4 | no binding | B2
5 | no binding | B3
6 | no binding | B4
7 | no binding | B5
8 | no binding | B6
9 | no binding | B7
10 | no binding | B8
11 | no binding | B9
12 | no binding | B10
13 | no binding | B11

target: T4, arginine/serine-rich zinc knuckle-containing protein 32 (RS2Z32), native full-length, yeast two-hybrid bait (Arabidopsis thaliana); assay: two-hybrid

Row | binding | Binder
14 | binds | B1
15 | no binding | B2
16 | no binding | B3
17 | no binding | B4
18 | no binding | B5
19 | no binding | B6
20 | no binding | B7
21 | no binding | B8
22 | no binding | B9
23 | no binding | B10
24 | no binding | B11
